Among the data in article PMC11481257 are binding values, retold here.

Protein sequences, listed by entry. Tags and fused reporters are not part of them.
UniProt O15131: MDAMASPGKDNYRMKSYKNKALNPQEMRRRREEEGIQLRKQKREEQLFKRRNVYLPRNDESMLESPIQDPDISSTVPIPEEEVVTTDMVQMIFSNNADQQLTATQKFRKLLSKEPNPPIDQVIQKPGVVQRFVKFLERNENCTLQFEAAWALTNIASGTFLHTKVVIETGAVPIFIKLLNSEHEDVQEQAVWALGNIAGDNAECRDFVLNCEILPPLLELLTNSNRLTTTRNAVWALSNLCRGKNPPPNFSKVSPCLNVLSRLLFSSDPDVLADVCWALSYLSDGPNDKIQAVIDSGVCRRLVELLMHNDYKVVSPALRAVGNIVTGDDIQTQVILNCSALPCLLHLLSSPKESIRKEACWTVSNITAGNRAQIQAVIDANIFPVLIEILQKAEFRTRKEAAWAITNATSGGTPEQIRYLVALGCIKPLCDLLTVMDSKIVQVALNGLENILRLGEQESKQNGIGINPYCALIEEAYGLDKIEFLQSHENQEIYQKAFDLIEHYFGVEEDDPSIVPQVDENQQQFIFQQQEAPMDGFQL
UniProt A9QM74: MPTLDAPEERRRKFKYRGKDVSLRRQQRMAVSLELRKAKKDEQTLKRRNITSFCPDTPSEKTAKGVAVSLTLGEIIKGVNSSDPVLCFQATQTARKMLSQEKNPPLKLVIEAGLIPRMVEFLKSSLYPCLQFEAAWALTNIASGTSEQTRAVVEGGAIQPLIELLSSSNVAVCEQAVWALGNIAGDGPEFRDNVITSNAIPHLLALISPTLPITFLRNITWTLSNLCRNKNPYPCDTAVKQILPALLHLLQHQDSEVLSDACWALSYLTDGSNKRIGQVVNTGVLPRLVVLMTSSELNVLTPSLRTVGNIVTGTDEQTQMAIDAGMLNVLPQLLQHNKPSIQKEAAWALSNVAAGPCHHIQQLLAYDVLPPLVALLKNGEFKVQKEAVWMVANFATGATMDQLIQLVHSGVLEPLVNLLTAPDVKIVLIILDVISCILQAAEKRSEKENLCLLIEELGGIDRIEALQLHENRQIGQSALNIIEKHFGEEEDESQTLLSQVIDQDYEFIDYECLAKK
UniProt Q13547: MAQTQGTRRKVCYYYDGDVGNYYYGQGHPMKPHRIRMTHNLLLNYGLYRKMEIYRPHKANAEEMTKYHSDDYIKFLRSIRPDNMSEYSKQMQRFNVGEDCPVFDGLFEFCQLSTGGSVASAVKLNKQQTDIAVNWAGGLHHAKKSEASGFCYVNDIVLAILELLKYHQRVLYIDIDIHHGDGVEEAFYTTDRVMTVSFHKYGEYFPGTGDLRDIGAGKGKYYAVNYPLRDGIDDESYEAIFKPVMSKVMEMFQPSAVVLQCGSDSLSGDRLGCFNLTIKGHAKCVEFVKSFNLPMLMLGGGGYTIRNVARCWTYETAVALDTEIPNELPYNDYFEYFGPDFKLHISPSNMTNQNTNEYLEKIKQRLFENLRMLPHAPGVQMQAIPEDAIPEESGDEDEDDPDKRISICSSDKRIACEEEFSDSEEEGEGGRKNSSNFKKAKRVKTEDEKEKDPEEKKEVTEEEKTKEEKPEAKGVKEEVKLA

For assay [1], the target named is FLAG-tagged importin α6 (UniProt O15131). Nature of the assay: co-IP; SiHa-PR cells expressing FLAG-tagged importin α6 or α8, with ectopic wild-type LNMAC circRNA, LNMAC mutant or control; co-IP protocol not described.
Assay [2] has as its target FLAG-tagged importin α8 (UniProt A9QM74). The assay is described as above.

Results are given in words; binding and its absence hold for the method and conditions named. In cells and extracts the contact can be indirect. Some results given as binding are weak or reduced against the parent protein; the word gives no strength.

Regarding “histone deacetylase 1 (HDAC1) (from UniProt Q13547 1-482)”, the binding entry in assay [1] and in assay [2] was “binds” each time.
